{"source": "patent US7973014B2", "about": "“Medicinal composition containing ginseng secondary glycosides, its preparation method and application” (National Institute of Pharmaceutical R&D Co., Ltd., priority 2005, dated 2011)", "system": "acute myocardial infarction in dogs", "assay": "Range of acute myocardial infarction in dogs, N-BT staining", "type": "in vivo, dog", "conditions": "5 mg/kg", "protocol": "Test dogs were divided into the following 8 groups, 6 dogs per group: (1) blank control group, 3 ml/kg physiological saline; (2) 5 mg/kg Diltiazem group; (3) 200 mg/kg “Di'ao Xinxuekang” group; (4) 200 mg/kg ginseng root total ginsenosides (briefly referred as root total ginsenosides) group; (5) 200 mg/kg ginseng stem/leave total ginsenosides (briefly referred as stem/leave total ginsenosides) group; (6) 25 mg/kg total secondary ginsenosides group; (7) 50 mg/kg total secondary ginsenosides group; and (8) 100 mg/kg total secondary ginsenosides group. All test drugs were formulated with distilled water to have the same volume (3 ml/kg), and were administered through duodenum.\nRecording was completed at 180 minutes after administration of drug, heart was taken out immediately, cardiac ventricle was cross-sectioned parallel to coronary sulcus under heart ligature to form 5 slices, which were placed in N-BT staining solution and stained at room temperature for 15 minutes. Infarction zone (N-BT non-staining zone) and non-infarction zone (N-BT staining zone) at both sides of each slice of cardiac muscle were measured by using a multimedia color pathologic image analysis system to calculate the area of each slice of cardiac muscle, the total area of the cardiac ventricle and the total area of the infarction zones. […]"}
{"smiles": "COc1ccc([C@@H]2Sc3ccccc3N(CCN(C)C)C(=O)[C@@H]2OC(C)=O)cc1", "note": "[Diltiazem]", "values": [{"measurement": "Cardiac ventricle area", "value": "5070.3 ± 405.8", "unit": "mm^2"}, {"measurement": "Heart area", "value": "12221.5 ± 1980.9", "unit": "mm^2"}]}
